# The supplement of paper PMC6289059
# Several values for one entry are separate records, joined by “and”; a condition that tells them apart may be missing. Equal values may be shown once. The list shows a part of the results. Single values are uncertain, as repeats are few or missing.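 The cells are hepatocyte-like cells grown from human stem cells in which the DGUOK gene was disrupted by CRISPR, a model of liver mtDNA depletion syndrome. Each well's ATP signal was scored against the other wells on its plate, and a drug counted as a primary hit when its score was 3 or higher.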
# System: DGUOK Δ14/Δ5 iPSC-derived hepatocyte-like cells (SV20)
# Test: ATP level (CellTiter-Glo luminescence) Z score relative to plate distribution, under 2-DG glycolysis block; higher = more cellular ATP (rescue of mitochondrial ATP production)
# Conditions: 5 µM; treatment time: day 15 to day 20 of differentiation (5 days); 2-deoxy-D-glucose: 20 mM for 24 h before assay
row,Structure (SMILES),ATP level
1,Nc1nc(F)nc2c1ncn2[C@@H]1O[C@H](COP(=O)(O)O)[C@@H](O)[C@@H]1O,inactive: 0.928
2,CC(=O)[C@@]12O[C@](C)(c3ccccc3)O[C@@H]1C[C@H]1[C@@H]3CCC4=CC(=O)CC[C@]4(C)[C@H]3CC[C@@]12C,inactive: 1.92
3,COCCCC/C(=N\OCCN)c1ccc(C(F)(F)F)cc1,inactive: 1.84
4,COC(=O)[C@H](c1ccccc1Cl)N1CCc2sccc2C1,inactive: 2.58
5,C[C@]12CCC(=O)C=C1CC[C@@H]1[C@@H]2C(=O)C[C@@]2(C)[C@H]1CC[C@]2(O)C(=O)CO,inactive: 1.15
6,C[C@H](N[C@@H](CCc1ccccc1)C(=O)O)C(=O)N1CCC[C@H]1C(=O)O,active: 4.12
7,COc1cc(OC)c2c(=O)c(OC)c(-c3ccccc3)oc2c1,inactive: 1.01
8,C[C@@H]1C[C@H]2[C@@H]3CCC4=CC(=O)C=C[C@]4(C)[C@@]3(F)[C@@H](O)C[C@]2(C)[C@@]1(O)C(=O)CO,inactive: 1.26
9,OC1(c2ccc(Cl)c(C(F)(F)F)c2)CCN(CCCC(c2ccc(F)cc2)c2ccc(F)cc2)CC1,inactive: -0.338
10,O=C(O)COC(=O)Cc1ccccc1Nc1c(Cl)cccc1Cl,inactive: -0.29
11,Cc1cnc(NC(=O)C2=C(O)c3ccccc3S(=O)(=O)N2C)s1,inactive: 2.31
12,O=C(O)CCCc1ccccc1,inactive: 1.57 and inactive: 0.544
13,NC1=NCCN1CC(=O)O,inactive: -1.6
14,CC1(C)O[C@@H]2C[C@H]3[C@@H]4CCC5=CC(=O)C=C[C@]5(C)[C@@]4(F)[C@@H](O)C[C@]3(C)[C@]2(C(=O)CO)O1,inactive: 2.4
15,C1CCN2C[C@@H]3C[C@@H](CN4CCCC[C@@H]34)[C@H]2C1,inactive: -0.642
16,CC1CC(OC(=O)C(O)c2ccccc2)CC(C)(C)N1C (configuration not stated),inactive: 0.212
17,Cc1nnc(NS(=O)(=O)c2ccc(N)cc2)s1,inactive: 1.16
18,COc1cc(NS(C)(=O)=O)ccc1Nc1c2ccccc2nc2ccccc12,inactive: -30.5
19,CCN1CCN(c2cc3c(cc2F)c(=O)c(C(=O)O)cn3C2CC2)CC1,inactive: -1.91
20,O=C1C2CC3CC1CC(O)(C3)C2,inactive: 0.041
21,C#CCCCCCCCCCCCc1ccco1,inactive: -0.139

# Three compounds out of the list, ordered by molecular weight, largest number first:
row,Structure (SMILES),ATP level
2,CC(=O)[C@@]12O[C@](C)(c3ccccc3)O[C@@H]1C[C@H]1[C@@H]3CCC4=CC(=O)CC[C@]4(C)[C@H]3CC[C@@]12C,inactive: 1.92
14,CC1(C)O[C@@H]2C[C@H]3[C@@H]4CCC5=CC(=O)C=C[C@]5(C)[C@@]4(F)[C@@H](O)C[C@]3(C)[C@]2(C(=O)CO)O1,inactive: 2.4
6,C[C@H](N[C@@H](CCc1ccccc1)C(=O)O)C(=O)N1CCC[C@H]1C(=O)O,active: 4.12

# Further entries:

row,Structure (SMILES),ATP level
1,Oc1ccc(OCc2ccccc2)cc1,inactive: -24.5
2,C[C@H]1C[C@H]2[C@@H]3CCC4=CC(=O)C=C[C@]4(C)[C@@]3(F)[C@@H](O)C[C@]2(C)[C@@]1(O)C(=O)CO,inactive: 1.73
3,CC(C)C1=CC2=CC[C@@H]3[C@](C)(CCC[C@@]3(C)C(=O)O)[C@H]2CC1,inactive: 2.05
4,O=C(NCCO[N+](=O)[O-])c1cccnc1,inactive: 1.05
5,Cc1ccc(Cl)c(Nc2ccccc2C(=O)O)c1Cl,inactive: 1.34
6,CCN1CCN(C(=O)N[C@@H](C(=O)N[C@@H]2C(=O)N3C(C(=O)O)=C(CSc4nnnn4C)CS[C@H]23)c2ccc(O)cc2)C(=O)C1=O,inactive: 2.08
7,CN(C)CCOc1ccc(/C(=C(/CCCl)c2ccccc2)c2ccccc2)cc1,inactive: 1.28
8,CO[C@@]12[C@H](COC(N)=O)C3=C(C(=O)C(C)=C(N)C3=O)N1C[C@@H]1N[C@@H]12,inactive: -14.5
9,CC(C(=O)O)c1ccc(N2Cc3ccccc3C2=O)cc1 (configuration not stated),inactive: 0.881
10,CC1=Nc2ccc(Cl)cc2S(=O)(=O)N1,inactive: -17.9
11,CCOC(=O)CCCCCCCCCCCCC1C=CCC1 (configuration not stated),inactive: -1.49
12,O=c1c(-c2ccc(O)cc2)coc2c([C@@H]3O[C@H](CO)[C@@H](O)[C@H](O)[C@H]3O)c(O)ccc12,inactive: -1.78
13,Cc1cc(/C=C/c2ccc3cc(N(C)C)ccc3[n+]2C)c(C)n1-c1ccccc1,inactive: -15
14,O=C(O)C(S)C(S)C(=O)O (configuration not stated),inactive: -0.135
15,O=S1(=O)OC(c2ccc(O)cc2)(c2ccc(O)cc2)c2ccccc21,inactive: -0.551
16,CC(C)=CCC/C(C)=C/CC/C(C)=C/CC/C(C)=C/CC/C(C)=C/CC/C(C)=C/CC/C(C)=C/CC/C(C)=C/CC/C(C)=C/CO,inactive: 0.407
17,CCCCNc1ccc(C(=O)OCCOCCOCCOCCOCCOCCOCCOCCOCCOC)cc1,active: 5.26
18,CC(C)(Oc1ccc(C(=O)c2ccc(Cl)cc2)cc1)C(=O)O,inactive: 1.38
19,COC(=O)CC[C@@H](C)[C@H]1CC[C@H]2[C@@H]3CC[C@@H]4C[C@H](O)CC[C@]4(C)[C@H]3C[C@H](O)[C@]12C,inactive: 0.574
20,O=C(O[C@@H]1Cc2c(O)cc(O)cc2O[C@@H]1c1cc(O)c(=O)c2c(O)c(O)cc([C@H]3Oc4cc(O)cc(O)c4C[C@H]3O)c2c1)c1cc(O)c(O)c(O)c1,inactive: 2.3
21,CC1(C)CC[C@]2(C(=O)O)CC[C@]3(C)C(=CC[C@@H]4[C@@]5(C)CC[C@H](O)[C@@](C)(CO)[C@@H]5CC[C@]43C)[C@@H]2C1,inactive: 0.364

row,Structure (SMILES),ATP level
1,O=c1cc(-c2cccc(O)c2)oc2cc(O)ccc12,inactive: -2.54
2,CNC(C)C1CCC(N)C(OC2C(N)CC(N)C(OC3OCC(C)(O)C(NC)C3O)C2O)O1 (configuration not stated),inactive: 1.15
3,O=C1CC2(CCCC2)CC(=O)N1CCCCN1CCN(c2ncccn2)CC1,inactive: -17.9
4,CC[C@H]1OC(=O)[C@H](C)[C@@H](O[C@H]2C[C@@](C)(OC)[C@@H](O)[C@H](C)O2)[C@H](C)[C@@H](O[C@@H]2O[C@H](C)C[C@H](N(C)C)[C@H]2O)[C@](C)(O)C[C@@H](C)[C@@H]2N[C@@H](COCCOC)O[C@H]([C@H]2C)[C@]1(C)O,inactive: 1.75
5,CC(C)/C(O)=C1/C(=O)O[C@@H](c2ccoc2)[C@]2(C)C(O)[C@@H](O)[C@@]34OC5(C)OC67CC(C)(C(O)[C@]6(O)[C@@H](O)[C@]3(O5)C12)[C@H](CC(=O)O)[C@]74C (some centres not stated),inactive: -3.54
6,CC(=O)OC1CC2CCC1(C)C2(C)C (configuration not stated),inactive: -0.705
7,O=c1cc[nH]c(=S)[nH]1,inactive: 0.641
8,CCC(C(=O)O)c1ccccc1 (configuration not stated),inactive: 2.46
9,CC(=O)O[C@@H]1CC2C(C)(C)C(=O)C3OC3[C@]2(C)C2CC[C@@]3(C)[C@H](c4ccoc4)OC(=O)C4OC43[C@@]21C (some centres not stated),inactive: -6.55
10,CO/N=C(\C(=O)N[C@@H]1C(=O)N2C(C(=O)O)=C(COC(N)=O)CS[C@H]12)c1ccco1,inactive: -13.8
11,O=C(NCC(O)CO)c1c(I)c(C(=O)NCC(O)CO)c(I)c(N(CCO)C(=O)CO)c1I (configuration not stated),inactive: 0.987
12,Nc1ccc(S(=O)(=O)Nc2ccnn2-c2ccccc2)cc1,inactive: 0.798
13,FC(F)(Cl)C(F)(F)Cl,inactive: -1.76
14,CCC(=O)c1c(O)cc(O)cc1O,inactive: 1.2
15,CC1Cc2ccccc2N1NC(=O)c1ccc(Cl)c(S(N)(=O)=O)c1 (configuration not stated),inactive: 0.933
16,C[C@H](CCC(=O)O)[C@H]1CC[C@H]2[C@@H]3CC[C@@H]4C[C@H](O)CC[C@]4(C)[C@H]3C[C@H](O)[C@]12C,inactive: 2.34
17,Nc1ccc2cc3ccc(N)cc3nc2c1,inactive: -3.81
18,COc1ccc2cc(C(C)C(=O)O)ccc2c1 (configuration not stated),inactive: 0.43
19,COc1c(O)cccc1O,inactive: -0.441
20,COC(=O)CC[C@@H](C)[C@H]1CC[C@H]2[C@@H]3[C@H](O)C[C@@H]4C[C@H](O)CC[C@]4(C)[C@H]3C[C@H](O)[C@]12C,inactive: 1.6
21,Cc1cc(CC(=O)O)n(C)c1C(=O)c1ccc(Cl)cc1,inactive: 0.815

row,Structure (SMILES),ATP level
1,CC12CCC(CC1)C(C)(C)O2,inactive: -0.802
2,CC(=O)Nc1ncc([N+](=O)[O-])s1,inactive: -0.606
3,O=c1c(O)c(-c2ccccc2)oc2cc(O)ccc12,inactive: 0.956
4,OC[C@H]1O[C@@H](Oc2cc(O)cc(/C=C/c3ccc(O)cc3)c2)[C@H](O)[C@@H](O)[C@@H]1O,inactive: -1.34
5,O=c1c(O)c(-c2ccc(O)cc2O)oc2cc(O)cc(O)c12,inactive: -0.122
6,COc1cc(-c2coc3cc(O[C@@H]4O[C@H](CO)[C@@H](O)[C@H](O)[C@H]4O)c(OC)c(O)c3c2=O)cc(O)c1OC,inactive: -0.0154
7,Cc1c(O)c(=O)ccn1C,inactive: 0.731
8,c1ccc([C@H]2CN3CCSC3=N2)cc1,inactive: -4.35
9,CCC(=O)O[C@]1(C(=O)CCl)[C@@H](C)C[C@H]2[C@@H]3CCC4=CC(=O)C=C[C@]4(C)[C@@]3(F)[C@@H](O)C[C@@]21C,inactive: 1.63
10,O=C1C[C@@H](c2ccc(O)cc2)Oc2cc(O)cc(O)c21,inactive: 1.03
11,O=C1OCCN1/N=C/c1ccc([N+](=O)[O-])o1,active: 3.29
12,NC(=O)c1ccc([N+](=O)[O-])cc1Cl,inactive: -25
13,CC(C)[C@H](N)C(=O)OCC(CO)OCn1cnc2c(=O)nc(N)[nH]c21 (some centres not stated),inactive: 0.692
14,O=C(/C=C/C(=O)Oc1ccccc1C(=O)O)Oc1ccccc1C(=O)O,inactive: 1.99
15,CC(=O)Oc1ccc2c(c1)CCC1C2CC[C@]2(C)C(=O)CCC12 (some centres not stated),inactive: -1.83
16,CN(C)c1nc(N(C)C)nc(N(C)C)n1,inactive: -4.59
17,CC(=O)O[C@@H]1C[C@@]23C[C@@]24CC[C@H](O[C@@H]2OC[C@@H](O)[C@H](O)[C@H]2O)C(C)(C)[C@@H]4CC[C@H]3[C@]2(C)C[C@@H]3O[C@]4(C[C@@H](C)[C@@H]3[C@@]12C)O[C@H](O)[C@@]1(C)O[C@@H]41,inactive: -1.62
18,CC(C)NCC(O)c1ccc2ccccc2c1 (configuration not stated),inactive: -2.23
19,CC(=O)O[C@]1(C(C)=O)CC[C@H]2[C@@H]3C[C@H](C)C4=CC(=O)CC[C@]4(C)[C@H]3CC[C@@]21C,inactive: -0.172
